# Laboratory results taken from PubChem BioAssay AID624297 (National Center for Advancing Translational Sciences (NCATS), 2012).
# About 6,200 (1.8%) of roughly 340,000 compounds were called active. This list was built around the results that the source calls inconclusive (neither active nor inactive); the mix of calls is not that of the screen. Calls come from the whole dose curve; as a rule, active = well fitted activation curve with a large enough effect; inconclusive = small, poorly fitted or top-dose-only effect; inactive = no such curve, though single readings can be large or run the other way. Potencies of inconclusive entries are doubtful fits and often do not repeat.
# Experiment: A quantitative high throughput screen for small molecules that induce DNA re-replication in SW480 colon adenocarcinoma cells. For re-replication activation: % of control where 0% means no effect. Note: nearly all actives have a fitted effect of over 55% in size.
# Settings: Hoechst DNA content imaging, 48 h; re-replication activation: at 46.1 µM (top of the series) unless noted
# Summary of the method: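 SW480 cells exposed to compounds for 48 hr at 37 C, 5% CO2, then Hoechst-stained 40 min. Nuclear DNA content imaged by fluorescence scanning (405 nm excitation, 500-530 nm emission); re-replication scored as increased high-intensity nuclei.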
# Potency is the fitted concentration of half-maximal effect.
SMILES,Potency,re-replication activation
COc1ccc(C(=O)Nc2ccc(N3CCN(C(=O)C(C)C)CC3)cc2)cc1[N+](=O)[O-],inactive,–
O=Cc1cnc2ccccc2c1-c1ccccc1,"inconclusive: 18.4 µM [activator, single point]",–
CC(C)CCNC(=O)COc1ccc(C(=O)c2ccccc2)cc1,"inconclusive: 29.1 µM [activator, single point]",–
Brc1cc2c(cc1/C=N/Nc1nc3ccccc3s1)OCO2,"inconclusive: 25.1 µM [activator, single point]",–
CCC1CN(S(=O)(=O)c2cc(-c3cc(C)no3)ccc2OC)c2cc(C)ccc2O1 (centres undefined),"inconclusive: 23.1 µM [activator, single point]",–
CC(=O)c1c(C)n(CC(=O)NCc2ccc3c(c2)OCO3)c2ccccc12,"inconclusive: 0.731 µM [activator, full curve, poor fit]",–
CCCCCCn1c(=O)[nH]c2nc3cc(N)c(C)cc3nc2c1=O,"inconclusive: 13 µM [activator, partial curve, poor fit]",–
NS(=O)(=O)c1ccc(N/C=C/C(=O)c2ccc(Br)cc2)cc1,"inconclusive: 0.0046 µM [activator, full curve, poor fit]",–
CCc1ccccc1NC(=O)CN1CCN(C(=O)CNC(=O)Cc2cccc3ccccc23)CC1,inactive,–
c1ccc(Oc2ccc(-c3ccnc4ncnn34)cc2)cc1,"inconclusive: 0.092 µM [activator, full curve, poor fit]",–
O=C(NCc1ccccc1Cl)C(=O)NCC1OCCN1S(=O)(=O)c1cccs1 (centres undefined),inactive,–
Cc1ccc([N+](=O)[O-])cc1S(=O)(=O)NCCc1c(C)[nH]c2c(C)cccc12,inactive,–
NC(=O)CCn1ccc2ccccc21,"inconclusive: 0.0046 µM [activator, full curve, poor fit]",–
COc1ccc(NS(=O)(=O)c2cc(NC(=O)C3CCCO3)ccc2N2CCCCC2)cc1 (centres undefined),"inconclusive: 18.4 µM [activator, single point]",–
CCc1nnc(NC(=O)c2ccc(S(=O)(=O)N(C)Cc3ccccc3)cc2)o1,active: 2.59 µM,–
Cc1ccc(Cn2c(C3CCCN3c3nc(-c4ccc(F)cc4)cs3)nc3cc(C(=O)NCCCO)ccc32)cc1 (centres undefined),"inconclusive: 20.6 µM [activator, partial curve, poor fit]",–
CCOC(=O)[C@H]1[C@H]2COc3ccc(OC)cc3[C@@H]2N2C(=O)c3ccc(C)cc3NC(=O)[C@@]12C,"inconclusive: 29.1 µM [activator, single point]",–
Cc1ccc2cc(C(c3nnnn3Cc3ccccc3)N3CCc4ccccc43)c(=O)[nH]c2c1C (centres undefined),"inconclusive: 11.6 µM [activator, partial curve, poor fit]",–
COc1ccccc1C1CC(c2cccs2)=Nc2ccccc2S1 (centres undefined),"inconclusive: 29.1 µM [activator, single point]",–
COC(=O)/C(=C1/Oc2ccc(C)cc2S1)C(F)(F)F,"inconclusive: 18.4 µM [activator, single point]",–
CCn1cc(CNC(=O)c2cc(-c3ccccc3OC)nc3ccccc23)c(C)n1,"inconclusive: 5.17 µM [activator, partial curve]",–
COc1cc(Cl)ccc1OCc1cc(C(=O)NCC(C)c2ccccc2)no1 (centres undefined),"inconclusive: 20.6 µM [activator, single point]",–
COc1ccccc1NC(=O)CC(=O)c1ccccc1,inactive,–

# Quoted from the listing.
# Under Potency, `CCC1CN(S(=O)(=O)c2cc(-c3cc(C)no3)ccc2OC)c2cc(C)ccc2O1` (centres undefined) reads inconclusive: 23.1 µM [activator, single point]
# Under Potency, `O=Cc1cnc2ccccc2c1-c1ccccc1` reads inconclusive: 18.4 µM [activator, single point]
# Under Potency, `CCCCCCn1c(=O)[nH]c2nc3cc(N)c(C)cc3nc2c1=O` reads inconclusive: 13 µM [activator, partial curve, poor fit]
# Under Potency, `Cc1ccc2cc(C(c3nnnn3Cc3ccccc3)N3CCc4ccccc43)c(=O)[nH]c2c1C` (centres undefined) reads inconclusive: 11.6 µM [activator, partial curve, poor fit]
# Under Potency, `COc1cc(Cl)ccc1OCc1cc(C(=O)NCC(C)c2ccccc2)no1` (centres undefined) reads inconclusive: 20.6 µM [activator, single point]

# Later entries:

SMILES,Potency,re-replication activation
S=C(N/N=C/c1ccc(Cl)cc1)N1CCOCC1,"inconclusive: 0.184 µM [activator, full curve, poor fit]",–
COC(=O)[C@]1(C)N[C@H](c2ccc(-c3cccc(Cl)c3)c(OC)c2)[C@@H]2C(=O)N(C)C(=O)[C@@H]21,"inconclusive: 29.1 µM [activator, partial curve, poor fit]",–
O=C(NNC(=S)NC(=O)c1ccccc1[N+](=O)[O-])c1ccc(Cl)cc1Cl,"inconclusive: 29.1 µM [activator, single point]",–
O=C(CN1CCCCCC1)N1c2ccccc2Sc2ccccc21,"inconclusive: 0.461 µM [activator, full curve, poor fit]",–
COc1ccc(NC(=O)NCc2ccccn2)c(OC)c1,inactive,–
CCc1nc(N2CCCCC2)c2oc3ccccc3c2n1,"inconclusive: 18.4 µM [activator, single point]",–
C=CCNCCCOc1ccc(C(C)(C)c2ccccc2)cc1,"inconclusive: 18.4 µM [activator, single point]",–
OC(COc1ccccc1)CN1CCN(c2ncccn2)CC1 (centres undefined),inactive,–
O=C(NCc1ccco1)c1noc2c1CCCC2,"inconclusive: 18.4 µM [activator, single point]",–
CCN(CC)c1ccc(Nc2cc3n(c(=O)n2)CCc2cc(OC)c(OC)cc2-3)cc1,"inconclusive: 29.1 µM [activator, single point]",–
CC(C)(C)C(=O)O/N=C(\N)c1ccc([N+](=O)[O-])s1,"inconclusive: 29.1 µM [activator, single point]",–
COc1ccc2c(=O)c3c(=O)n(Cc4ccco4)c(-c4cc(OC)c(OC)c(OC)c4)nc3oc2c1,inactive,–
COc1cc(/C=N/N=C2/C(=O)Nc3ccccc32)cc(OC)c1O,inactive,–
COc1ccc(-n2c(SC(C)C(=O)Nc3ncc(Cl)cc3Cl)nc3ccccc32)cc1 (centres undefined),"inconclusive: 25.9 µM [activator, single point]",–
CCOc1c(O)ccc(C2NC(=O)N(C)C(C)=C2C(=O)OC)c1[N+](=O)[O-] (centres undefined),"inconclusive: 29.1 µM [activator, single point]",–
COc1ccccc1C(=O)N/C(=C\c1cn(S(=O)(=O)N(C)C)c2ccccc12)C(=O)N1CCOCC1,inactive,–
NC(=O)NC(=O)COC(=O)/C=C/c1cccs1,"inconclusive: 3.66 µM [activator, single point]",–
O=C(CCl)Nc1c(C(=O)Nc2ccc3c(c2)OCCO3)oc2ccccc12,"inconclusive: 23.1 µM [activator, single point]",–
CCCCCCCNC(=O)C1(CC2CC(c3ccc(Cl)cc3)=NO2)CCN(C(=O)OC(C)(C)C)CC1 (centres undefined),–,inactive: 0.517% [at 9.22 µM]
Cc1ccc(CNC(=O)c2cc3c(=O)n(C)c4ccccc4c3n2C)cc1,inactive,–
Cc1cc(=O)n2nc(N3CCC(C(=O)NCc4cccc(Cl)c4)CC3)sc2n1,inactive,–
COc1ccc(-c2cc(C3CCN(Cc4ccc([N+](=O)[O-])cc4)CC3)[nH]n2)cc1,inactive,–
Cc1cc(Sc2nc(N)ncc2[N+](=O)[O-])ncn1,"inconclusive: 29.1 µM [activator, single point]",–

SMILES,Potency,re-replication activation
CSc1ccc(NC(=O)Nc2cccn(Cc3ccccc3)c2=O)cc1,inactive,–
O=C(COC(=O)CNC(=O)c1cccs1)Nc1ccc(C(F)(F)F)cc1[N+](=O)[O-],"inconclusive: 29.1 µM [activator, single point]",–
COCCNc1nc2nonc2nc1N1CCCC1c1nccs1 (centres undefined),"inconclusive: 29.1 µM [activator, single point]",–
Cc1ccc(S(=O)(=O)N(C)C)cc1NC(=O)COC(=O)CSc1ccccc1,inactive,–
CN(Cc1ccc(Br)cc1)CC(O)COc1cccc(Br)c1 (centres undefined),inactive,–
Cc1cc(C)n(S(=O)(=O)/C=C/c2ccccc2)n1,"inconclusive: 1.84 µM [activator, partial curve, poor fit]",–
COc1ccccc1CNC(=O)CN1NS(=O)(=O)c2ccccc2C1=O,"inconclusive: 29.1 µM [activator, single point]",–
CC(=O)c1ccc(NC(=O)c2noc(C)c2[N+](=O)[O-])cc1,–,inconclusive: 45.2% [activator]
COc1ccc(C(=O)Nc2cccc(C(C)=O)c2)c(OC)c1OC,–,inactive: -1.45% [at 9.22 µM]
Cc1ccc(-c2csc(N(CCO)CCCn3c(C(F)(F)F)nc4ccccc43)n2)cc1,"inconclusive: 2.31 µM [activator, partial curve, poor fit]",–
COc1ccc(CN2CCNC(=O)C2CC(=O)NCc2csc(C)n2)c(F)c1 (centres undefined),inactive,–
CCCCn1c2ccc(F)cc2c2nnc(SCCN3CCCCC3)nc21,inactive,–
CC(C)(C)c1nnc2sc(SCC(=O)N3CCCCC3)nn2c1=O,inactive,–
COc1ccc(CNc2ccc([N+](=O)[O-])cn2)cc1,"inconclusive: 20.6 µM [activator, single point]",–
COc1ccc(C=NNc2ccc(S(=O)(=O)Nc3ccccc3C(=O)O)cc2[N+](=O)[O-])c(OC)c1,inactive,–
Cn1cc(Br)c(C(=O)Nc2nccs2)n1,"inconclusive: 4.61 µM [activator, single point]",–
Cc1ccc(CN(CC(=O)NCCc2ccccc2)C(=O)c2csnn2)cc1,inactive,–
COc1ccc(-c2csc(N(CCCN(C)C)C(=O)c3ccccc3Cl)n2)cc1,"inconclusive: 18.4 µM [activator, single point]",–
CC(=O)C1=C(O)CC(c2ccccc2)CC1=NCCc1c(C)[nH]c2ccc(C)cc12 (centres undefined),inactive,–
O=C(COC(=O)c1n[nH]c2ccccc12)NC(=O)NC12CC3CC(CC(C3)C1)C2,"inconclusive: 29.1 µM [activator, partial curve, poor fit]",–
O=C(CCCC(=O)NCCc1ccccc1)NCCc1ccccc1,inactive,–
COc1ccc(NC(=O)CN2CCN(c3ccccc3C)CC2)cc1,"inconclusive: 25.9 µM [activator, single point]",–
N=C1SCC(=O)N1c1nc(-c2ccccc2)cs1,"inconclusive: 29.1 µM [activator, single point]",–
